From article PMC4030770
No constants are given. Whether binding was seen depends on the method and setting. Binding seen in cells or lysates may run through a third protein. Some binding calls cover weakened binding; strength is not graded here.

Chains of the proteins cited; added tags and fusions are not shown.
UniProt Q8C015: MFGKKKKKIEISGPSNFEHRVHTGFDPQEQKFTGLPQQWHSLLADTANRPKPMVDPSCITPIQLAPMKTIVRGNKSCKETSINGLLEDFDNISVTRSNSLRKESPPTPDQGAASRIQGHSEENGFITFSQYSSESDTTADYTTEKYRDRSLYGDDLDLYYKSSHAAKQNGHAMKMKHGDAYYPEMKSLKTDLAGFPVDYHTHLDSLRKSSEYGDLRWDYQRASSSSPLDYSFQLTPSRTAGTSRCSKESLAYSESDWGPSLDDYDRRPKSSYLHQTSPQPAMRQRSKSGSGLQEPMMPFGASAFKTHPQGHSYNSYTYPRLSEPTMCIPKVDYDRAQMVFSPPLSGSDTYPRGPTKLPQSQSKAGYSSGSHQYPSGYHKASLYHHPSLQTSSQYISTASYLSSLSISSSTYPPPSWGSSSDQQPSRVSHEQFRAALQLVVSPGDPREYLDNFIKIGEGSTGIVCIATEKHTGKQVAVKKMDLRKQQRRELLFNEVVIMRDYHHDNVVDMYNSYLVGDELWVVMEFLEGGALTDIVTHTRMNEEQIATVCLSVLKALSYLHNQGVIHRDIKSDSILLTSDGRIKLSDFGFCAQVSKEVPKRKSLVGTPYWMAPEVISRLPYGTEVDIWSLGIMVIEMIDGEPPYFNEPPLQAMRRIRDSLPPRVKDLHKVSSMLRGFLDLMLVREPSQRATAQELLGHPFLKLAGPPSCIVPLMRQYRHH

Tests used:
[1] = molecular target: T1, DISC1 (mouse (endogenous in mouse brain)) (UniProt Q811T9); assay: co-IP; 1000 ug synaptoneurosomal extract of full mouse brain in 500 ul extraction buffer (10 mM Tris, 0.1 M NaCl, 4 mM EDTA, 0.1% NP40); precipitated with 4 ug goat anti-PAK7 or goat anti-DISC1 for 16 h, protein A/G agarose; western blot for the other protein; normal goat IgG as negative control
T1 sequence: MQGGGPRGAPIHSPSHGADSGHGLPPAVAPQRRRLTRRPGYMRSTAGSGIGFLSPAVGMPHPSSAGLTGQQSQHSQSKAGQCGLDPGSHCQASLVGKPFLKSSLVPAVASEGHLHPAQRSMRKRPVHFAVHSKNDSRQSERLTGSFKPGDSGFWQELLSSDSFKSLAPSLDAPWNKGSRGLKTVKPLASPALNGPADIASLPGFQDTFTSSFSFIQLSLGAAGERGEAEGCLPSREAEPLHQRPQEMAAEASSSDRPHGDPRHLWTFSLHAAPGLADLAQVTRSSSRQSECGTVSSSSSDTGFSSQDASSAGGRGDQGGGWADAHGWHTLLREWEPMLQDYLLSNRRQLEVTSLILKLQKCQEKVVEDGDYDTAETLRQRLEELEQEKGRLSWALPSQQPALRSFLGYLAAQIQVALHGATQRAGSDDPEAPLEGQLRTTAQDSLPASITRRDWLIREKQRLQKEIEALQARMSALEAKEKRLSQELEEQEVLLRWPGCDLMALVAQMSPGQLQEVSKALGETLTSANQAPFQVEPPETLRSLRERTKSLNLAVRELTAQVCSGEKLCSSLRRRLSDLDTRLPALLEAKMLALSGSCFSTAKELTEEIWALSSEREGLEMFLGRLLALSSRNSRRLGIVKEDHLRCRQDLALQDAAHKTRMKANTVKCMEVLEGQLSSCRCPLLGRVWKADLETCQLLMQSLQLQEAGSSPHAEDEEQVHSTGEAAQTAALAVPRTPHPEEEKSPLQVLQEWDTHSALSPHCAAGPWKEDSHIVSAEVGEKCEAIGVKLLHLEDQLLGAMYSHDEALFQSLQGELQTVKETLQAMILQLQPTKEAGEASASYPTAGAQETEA

[2] = molecular target: p21 Protein-Activated Kinase 7 (mouse (endogenous in mouse brain)) (UniProt Q8C015); assay: as above

Molecule | binding [1] | binding [2]
p21 Protein-Activated Kinase 7 (from UniProt Q8C015 1-719) | binds | –
DISC1 (protein, UniProt Q811T9 1-852) MQGGGPRGAPIHSPSHGADSGHGLPPAVAPQRRRLTRRPGYMRSTAGSGIGFLSPAVGMPHPSSAGLTGQQSQHSQSKAGQCGLDPGSHCQASLVGKPFLKSSLVPAVASEGHLHPAQRSMRKRPVHFAVHSKNDSRQSERLTGSFKPGDSGFWQELLSSDSFKSLAPSLDAPWNKGSRGLKTVKPLASPALNGPADIASLPGFQDTFTSSFSFIQLSLGAAGERGEAEGCLPSREAEPLHQRPQEMAAEASSSDRPHGDPRHLWTFSLHAAPGLADLAQVTRSSSRQSECGTVSSSSSDTGFSSQDASSAGGRGDQGGGWADAHGWHTLLREWEPMLQDYLLSNRRQLEVTSLILKLQKCQEKVVEDGDYDTAETLRQRLEELEQEKGRLSWALPSQQPALRSFLGYLAAQIQVALHGATQRAGSDDPEAPLEGQLRTTAQDSLPASITRRDWLIREKQRLQKEIEALQARMSALEAKEKRLSQELEEQEVLLRWPGCDLMALVAQMSPGQLQEVSKALGETLTSANQAPFQVEPPETLRSLRERTKSLNLAVRELTAQVCSGEKLCSSLRRRLSDLDTRLPALLEAKMLALSGSCFSTAKELTEEIWALSSEREGLEMFLGRLLALSSRNSRRLGIVKEDHLRCRQDLALQDAAHKTRMKANTVKCMEVLEGQLSSCRCPLLGRVWKADLETCQLLMQSLQLQEAGSSPHAEDEEQVHSTGEAAQTAALAVPRTPHPEEEKSPLQVLQEWDTHSALSPHCAAGPWKEDSHIVSAEVGEKCEAIGVKLLHLEDQLLGAMYSHDEALFQSLQGELQTVKETLQAMILQLQPTKEAGEASASYPTAGAQETEA | – | binds
